Results on 11 substances are retold here after patent publication US20250059231A1 (priority 2021, published 2025).

The star is where a group is joined. Palmitoyl = CCCCCCCCCCCCCCCC(=O)*; Boc = CC(C)(C)OC(=O)*

A short description of the first series: general procedure: Fmoc solid-phase peptide synthesis; CTC-Cl resin; DIPCDI/HOBt. The settings on record: whole synthesis, scale 3.3 mmol, bis-TFA salt.
For Palmitoyl-K(Boc)AAK(Boc)-OH, the crude mass is given as 1.7 g and the crude yield worked out at 60%.

The nature of the next series: general procedure: Fmoc solid-phase peptide synthesis; Rink amide MBHA/AM resin; CTC-Cl resin (Barlos' resin); DIPCDI/HOBt. The settings on record: coupling step, bis-TFA salt.
In the case of “Palmitoyl-Lys (Cbz)-Ala-Ala-5-bromo-1-BO2Pin-pentylamide”, the step yield was determined as 35%. On the same count and under the same terms, as for “Palmitoyl-Ala-trans-(O-pyridinyl) Hyp-Ala-Lys (Cbz) NH2”, the figure is 79%.

On to “Palmitoyl-Lys(Boc)-Ala-Ala-Lys(Boc)-Oxd-Me”, for which the step yield was found to be 24%. The same measure, in the same setting: with “Tert-butyl ((9R,12S,15S,18S)-9-((cyclopropylsulfonyl)carbamoyl)-12,15-dimethyl-3,11,14,17-tetraoxo-18-palmitamido-1-phenyl-2-oxa-4,10,13,16-tetraazadocosan -22-yl)carbamate” the figure was 73%; with “Palmitoyl-Lys(Boc)-Ala-Ala-Lys(Boc)-CH—OH—C═O—NH2”, 26%.

Still in this series, the particulars now being: late stage modification step, bis-TFA salt.
On to Palmitoyl-Lys(Boc)-Ala-Ala-Lys(Boc)-H, for which the step yield is recorded as 26%. Still for that read-out and setting: as for “Palmitoyl-Lys(Boc)-Ala-Ala-Lys(Boc)-C═O—NH2”, the figure is 99%; as for “Palmitoyl-Lys(Boc)-Ala-Ala-Lys(Boc)-N(OMe)Me”, 93%. With “Palmitoyl-Lys-Ala-Ala-5-amine-1-BO2Pin-pentylamide”, the step yield is 95%. The same measure, in the same setting: with “Palmitoyl-Lys (Cbz)-Ala-Ala-5-azido-1-BO2Pin-pentylamide” the figure was 91%.
